For the assay, the target named is K(AL)3K(AL)2K(AL)3K. Put plainly: circular dichroism (222/208 ratio); 50 μM peptide in double-distilled water with 50 μM purified E. coli LPS, 25 °C, pH 7; ratio ~0.8 taken as monomer, ~1 and higher as oligomer; both purified.

These are yes or no findings as the source states them, for the method shown. Some entries that bind do so weakly or less than the wild type.

For the molecule KALALALKALALKALALALK (C-terminal amide) [K(AL)3K(AL)2K(AL)3K], the binding entry is “binds”.

Source of the values: publication PMC11184611, “Development of Nontoxic Peptides for Lipopolysaccharide Neutralization and Sepsis Treatment” (ACS Pharmacology & Translational Science, 2024).
